Experimental data: the supplement of paper PMC10849652
The other results are listed elsewhere or left out.

Protein sequences, listed by entry. Tags and fused reporters are not part of them. Lines headed by an entry give the natural chain unless they say otherwise; changes in a name come on top.
UniProt Q8NCE2: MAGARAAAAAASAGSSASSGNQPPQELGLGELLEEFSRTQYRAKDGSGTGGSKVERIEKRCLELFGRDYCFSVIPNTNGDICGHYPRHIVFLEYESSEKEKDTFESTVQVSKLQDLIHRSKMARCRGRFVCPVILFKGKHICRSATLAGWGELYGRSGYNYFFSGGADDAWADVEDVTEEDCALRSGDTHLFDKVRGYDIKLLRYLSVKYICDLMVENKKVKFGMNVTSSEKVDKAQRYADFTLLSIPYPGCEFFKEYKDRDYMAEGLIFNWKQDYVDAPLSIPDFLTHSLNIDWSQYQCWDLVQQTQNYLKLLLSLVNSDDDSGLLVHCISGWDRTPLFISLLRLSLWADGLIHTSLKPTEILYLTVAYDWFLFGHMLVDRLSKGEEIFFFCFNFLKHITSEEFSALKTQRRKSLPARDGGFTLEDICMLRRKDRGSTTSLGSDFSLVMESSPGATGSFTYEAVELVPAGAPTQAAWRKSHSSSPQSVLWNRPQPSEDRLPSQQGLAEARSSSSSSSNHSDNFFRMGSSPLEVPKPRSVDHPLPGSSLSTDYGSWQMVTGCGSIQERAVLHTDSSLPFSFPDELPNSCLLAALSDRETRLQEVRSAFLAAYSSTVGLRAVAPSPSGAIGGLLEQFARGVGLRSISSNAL
UniProt Q9H2K0, whole entry, looked up: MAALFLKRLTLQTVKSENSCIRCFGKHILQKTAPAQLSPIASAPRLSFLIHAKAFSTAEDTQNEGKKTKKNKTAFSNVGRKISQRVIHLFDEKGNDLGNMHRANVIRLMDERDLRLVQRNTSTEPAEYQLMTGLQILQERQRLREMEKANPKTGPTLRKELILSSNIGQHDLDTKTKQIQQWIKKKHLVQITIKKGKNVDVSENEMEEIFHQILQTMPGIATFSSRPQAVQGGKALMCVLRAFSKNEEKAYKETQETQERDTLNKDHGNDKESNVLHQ

Tests used:
Assay in all cases: log2 fold change, soluble protein after heating vs DMSO (PISA); higher = thermal stabilisation; K562 cells, 10 uM, 30 min; active = over 0.2 and 3.5 SD of the protein, either way, in both replicates (recomputed)
[1] = compound: Cc1ccc(NC(=O)c2ccc(CN3CC[C@H](N(C)C)C3)c(C(F)(F)F)c2)cc1Nc1nccc(-c2cncnc2)n1 [bafetinib]
How it was run: (§1)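 Soluble protein was quantified by TMTpro 16plex LC-MS/MS after channel sums were equalised. It was obtained as the supernatant after 21,000xg for 90 min from pooled aliquots of K562 cells (2×10^6 cells/mL, 10 μM compound, 30 min) heated for 3 min across 48°C-58°C and extracted in PBS with 0.5% NP-40 at 4°C. Thermal stability values are relative to control samples and come from duplicates. They are given as log2 fold changes.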

[2] = compound: Cc1cccc(CC(=O)N2CCc3c2ccc(-c2cn(C)c4ncnc(N)c24)c3F)n1
How it was run: as §1

[3] = compound: Cc1cn(-c2cc(NC(=O)c3ccc(C)c(Nc4nccc(-c5cccnc5)n4)c3)cc(C(F)(F)F)c2)cn1 [nilotinib]
How it was run: as §1

[4] = compound: Cc1nc(Nc2n[nH]c3c2CN(C(=O)N[C@H](CN(C)C)c2ccccc2)C3(C)C)c2sccc2n1
How it was run: as §1

[5] = compound: Cc1nc(Nc2ncc(C(=O)Nc3c(C)cccc3Cl)s2)cc(N2CCN(CCO)CC2)n1 [dasatinib]
How it was run: as §1

[6] = compound: Cc1ncc(-c2ccnc(Nc3ccc(S(C)(=O)=O)cc3)n2)n1C(C)C
How it was run: as §1

[7] = compound: Cn1cc(-c2ccc3c(c2)CCN3C(=O)Cc2cccc(C(F)(F)F)c2)c2c(N)ncnc21
How it was run: as §1

[8] = compound: Cn1cc(-c2ccc3nnc(C(F)(F)c4ccc5ncccc5c4)n3n2)cn1
How it was run: as §1

[9] = compound: Cn1cncc1[C@@](N)(c1ccc(Cl)cc1)c1ccc2c(c1)c(-c1cccc(Cl)c1)cc(=O)n2C [tipifarnib]
How it was run: as §1

[10] = compound: FC(F)(F)c1ccc(/C=C/c2nc(COc3ccc(CCCCn4ccnn4)cc3)co2)cc1 [mubritinib]
How it was run: as §1

[11] = compound: NC(=O)Nc1cc(-c2cccc(F)c2)sc1C(=O)N[C@H]1CCCNC1
How it was run: as §1

[12] = compound: NC(=O)c1cnc(N[C@@H]2CCCC[C@@H]2N)nc1Nc1cccc(-n2nccn2)c1
How it was run: as §1

[13] = compound: NC1(c2ccc(-c3nc4ccn5c(=O)[nH]nc5c4cc3-c3ccccc3)cc2)CCC1
How it was run: as §1

[14] = compound: NCC(=O)Nc1ccc(-n2nc(C(F)(F)F)cc2-c2ccc3c(ccc4ccccc43)c2)cc1
How it was run: as §1

[15] = compound: Nc1ccccc1NC(=O)c1ccc(CNC(=O)OCc2cccnc2)cc1 [entinostat]
How it was run: as §1

[16] = compound: O=C(CCCCCCC(=O)Nc1ccccc1)NO [vorinostat]
How it was run: as §1

[17] = compound: O=C(CCCCCCNC(=O)c1cnc(N(c2ccccc2)c2ccccc2Cl)nc1)NO [citarinostat]
How it was run: as §1

[18] = compound: O=C(O)c1ccc2c(c1)nc(Nc1cccc(Cl)c1)c1ccncc12 [silmitasertib]
How it was run: as §1

[19] = compound: O=C1NC(=O)C(c2cnc3ccccn23)=C1c1cn2c3c(cc(F)cc13)CN(C(=O)N1CCCCC1)CC2
How it was run: as §1

[20] = compound: c1cc(OCCN2CCCCC2)cc(-c2n[nH]c3ccc(-c4nnc[nH]4)cc23)c1
How it was run: as §1

Measured: log2 fold change

MRPS7 (UniProt Q9Y2R9)
inactive: [1] 0.094 | [2] 0.099 | [3] -0.127 | [4] -0.014 | [5] 0.07 | [6] -0.037 | [7] -0.046 | [8] 0.018 | [9] -0.026 | [10] 0.073 | [11] -0.001 | [12] 0.002 | [13] -0.013 | [14] 0.081 | [15] 0.029 | [16] 0.042 | [17] 0.012 | [18] -0.096 | [19] 0.021 | [20] -0.11

MVB12A (UniProt Q96EY5)
inactive: [1] 0.004 | [2] 0.137 | [3] -0.108 | [4] -0.075 | [5] -0.034 | [6] -0.056 | [8] 0.036 | [9] -0.015 | [10] 0.048 | [11] -0.021 | [12] -0.125 | [13] -0.138 | [14] 0.063 | [15] -0.006 | [16] 0.214 | [17] 0.029 | [18] 0.033 | [19] -0.08 | [20] -0.049

MTHFD1L (UniProt B7ZM99)
inactive: [1] -0.057 | [2] -0.077 | [3] -0.061 | [4] 0.058 | [5] -0.088 | [6] -0.06 | [7] 0.035 | [8] 0.014 | [9] -0.056 | [10] 0.055 | [12] -0.057 | [13] -0.136 | [14] -0.07 | [16] 0.076 | [17] 0.027 | [18] 0 | [20] 0.03

MTMR14 (UniProt Q8NCE2)
inactive: [1] -0.051 | [2] -0.089 | [3] -0.023 | [4] -0.04 | [5] -0.063 | [6] 0.016 | [7] -0.006 | [8] -0.084 | [9] -0.035 | [10] 0.058 | [11] -0.02 | [12] -0.08 | [13] -0.087 | [14] -0.075 | [15] 0.024 | [16] 0.093 | [17] 0.08 | [18] 0.071 | [19] -0.081 | [20] 0.039

MTIF3 (UniProt Q9H2K0)
inactive: [1] 0.021 | [2] 0.021 | [3] -0.069 | [4] -0.196 | [5] -0.015 | [6] -0.073 | [7] -0.085 | [11] 0.082 | [12] 0.17 | [14] 0.249 | [15] -0.223 | [16] -0.023 | [19] -0.071
